Test results from the supplement of paper PMC4604168 (melanoma cell lines).
The other results are listed elsewhere or left out. Repeats are few or missing, and single values can be far off.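 The apoptosis fraction was the count of cleaved-PARP antibody-stained nuclei relative to all DNA-stained nuclei, imaged in 1,536-well plates. Screening doses were set so most cells survived, and baseline and induced cleaved-PARP levels vary greatly across cell lines.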

Tested on: RPMI7951
Assay: cleaved PARP positive nuclei fraction relative to DMSO control; melanoma cells; higher = more apoptosis
Conditions: library dose: low library concentration; 72 h

With `CNC(=O)c1cc(Oc2ccc(NC(=O)Nc3ccc(Cl)c(C(F)(F)F)c3)cc2)ccn1` [sorafenib] + Cc1cc([N+](=O)[O-])ccc1NS(=O)(=O)c1cc(Cl)ccc1Cl [FH535] (first compound 0.4 µM, partner dose 1 µM) as the compound, how does the “cleaved PARP positive nuclei fraction” value read?
The value was 66.7%.

`CN1CCN(c2ccc3nc(-c4c(N)c5c(F)cccc5[nH]c4=O)[nH]c3c2)CC1` [Dovitinib] + COc1ccc2c(c1)CCC1C2CCC2(C)C(NCCCCCCN3C(=O)C=CC3=O)CCC12 [U73122] (first compound 0.1 µM, partner dose 0.4 µM) was tested. Which “cleaved PARP positive nuclei fraction” value did it give?
Its value is 67.6%.

Which “cleaved PARP positive nuclei fraction” value does the source give for `O=C(O)[C@@H]1[O][Sb](=[O])([O][Sb]2(=[O])[O][C@H]([C@H](O)CO)[C@H](O)[C@H](C(=O)O)[O]2)[O][C@H]([C@H](O)CO)[C@@H]1O` (stereo partly specified) [stibogluconate] + COc1cc(N2CCC(N3CCN(C)CC3)CC2)ccc1Nc1ncc(Cl)c(Nc2ccccc2S(=O)(=O)C(C)C)n1 [NVP-TAE684] (first compound 2 µM, partner dose 0.08 µM) here?
The value was 34.9%.

For `CCCS(=O)(=O)Nc1ccc(F)c(C(=O)c2c[nH]c3ncc(Cl)cc23)c1F` + N#Cc1c(O)c2c(-c3ccc(-c4ccccc4O)cc3)csc2[nH]c1=O [A769662] (first compound 0.08 µM, partner dose 2 µM), which “cleaved PARP positive nuclei fraction” value is on record?
Its value is 118%.

How did the “cleaved PARP positive nuclei fraction” value turn out when `CN1CCN(c2ccc3nc(-c4c(N)c5c(F)cccc5[nH]c4=O)[nH]c3c2)CC1` [Dovitinib] + Cc1cc(N2CCOCC2)cc2[nH]c(-c3c(NC[C@@H](O)c4cccc(Cl)c4)cc[nH]c3=O)nc12 [BMS536924] (first compound 0.1 µM, partner dose 0.2 µM) was run?
Its value is 87.5%.

With `C[C@@H](Oc1cc(-c2cnn(C3CCNCC3)c2)cnc1N)c1c(Cl)ccc(F)c1Cl` [Crizotinib] + COc1ccc(-c2ccc3c(N4CCOCC4)nc(N4C[C@@H](C)O[C@@H](C)C4)nc3n2)cc1CO [KU0063794] (first compound 0.2 µM, partner dose 0.02 µM) as the compound, how does the “cleaved PARP positive nuclei fraction” value read?
Its value is 85.4%.

How did the “cleaved PARP positive nuclei fraction” value turn out when `O=C(O)[C@@H]1[O][Sb](=[O])([O][Sb]2(=[O])[O][C@H]([C@H](O)CO)[C@H](O)[C@H](C(=O)O)[O]2)[O][C@H]([C@H](O)CO)[C@@H]1O` (stereo partly specified) [stibogluconate] + O=C(O)c1ccc(-c2c[nH]c3ncc(-c4ccccc4)cc23)cc1C1CCCC1 [GSK650394] (first compound 2 µM, partner dose 0.16 µM) was run?
Its value is 39.9%.

How did the “cleaved PARP positive nuclei fraction” value turn out when `Cn1c(=O)n(-c2ccc(C(C)(C)C#N)cc2)c2c3cc(-c4cnc5ccccc5c4)ccc3ncc21` + CCCCCCCCCCCC1=C(O)C(=O)C=C(O)C1=O [Embelin] (first compound 0.004 µM, partner dose 1.2 µM) was run?
The value was 73.3%.

For `CN1CCN(c2ccc3nc(-c4c(N)c5c(F)cccc5[nH]c4=O)[nH]c3c2)CC1` [Dovitinib] + NCC(=O)Nc1ccc(-n2nc(C(F)(F)F)cc2-c2ccc3c(ccc4ccccc43)c2)cc1 [OSU03012] (first compound 0.1 µM, partner dose 1 µM), which “cleaved PARP positive nuclei fraction” value is on record?
Its value is 182%.

How did the “cleaved PARP positive nuclei fraction” value turn out when `C=C(c1ccc(C(=O)O)cc1)c1cc2c(cc1C)C(C)(C)CCC2(C)C` [Bexarotene] + Cc1cc([N+](=O)[O-])ccc1NS(=O)(=O)c1cc(Cl)ccc1Cl [FH535] (first compound 2 µM, partner dose 1 µM) was run?
The value was 74%.

For `Cc1cc(Nc2cc(N3CCN(C)CC3)nc(/C=C/c3ccccc3)n2)n[nH]1` + COC(=O)c1sccc1S(=O)(=O)Nc1ccc(Nc2ccccc2)cc1OC [GSK0660] (first compound 0.04 µM, partner dose 1 µM), which “cleaved PARP positive nuclei fraction” value is on record?
The value was 35.7%.

For `CC(C)C[C@H](NC(=O)[C@H](Cc1ccccc1)NC(=O)c1cnccn1)B(O)O` [Bortezomib] + Cc1cc([N+](=O)[O-])ccc1NS(=O)(=O)c1cc(Cl)ccc1Cl [FH535] (first compound 0.001 µM, partner dose 1 µM), which “cleaved PARP positive nuclei fraction” value is on record?
The value was 364%.

With `CC(C)C[C@H](NC(=O)[C@H](Cc1ccccc1)NC(=O)c1cnccn1)B(O)O` [Bortezomib] + O=C(CCCCCCC(=O)Nc1ccccc1)NO [vorinostat] (first compound 0.001 µM, partner dose 0.08 µM) as the compound, how does the “cleaved PARP positive nuclei fraction” value read?
Its value is 103%.

For `Nc1ncn([C@H]2C[C@H](O)[C@@H](CO)O2)c(=O)n1` [decitabine] + COc1ccc2c(c1)CCC1C2CCC2(C)C(NCCCCCCN3C(=O)C=CC3=O)CCC12 [U73122] (first compound 0.1 µM, partner dose 0.4 µM), which “cleaved PARP positive nuclei fraction” value is on record?
The value was 75.3%.

Tested on: RVH-421
Assay: as above
Conditions: library dose: low library concentration; 72 h

How did the “cleaved PARP positive nuclei fraction” value turn out when `Nc1ncn([C@H]2C[C@H](O)[C@@H](CO)O2)c(=O)n1` [decitabine] + COc1ccc(-c2ccc3c(N4CCOCC4)nc(N4C[C@@H](C)O[C@@H](C)C4)nc3n2)cc1CO [KU0063794] (first compound 0.1 µM, partner dose 0.02 µM) was run?
The value was 142%.

For `CS(=O)(=O)CCNCc1ccc(-c2ccc3ncnc(Nc4ccc(OCc5cccc(F)c5)c(Cl)c4)c3c2)o1` [lapatinib] + O=S(=O)(c1ccccc1)N(CC(F)(F)F)c1ccc(C(O)(C(F)(F)F)C(F)(F)F)cc1 [T0901317] (first compound 0.8 µM, partner dose 1.4 µM), which “cleaved PARP positive nuclei fraction” value is on record?
Its value is 123%.

Which “cleaved PARP positive nuclei fraction” value does the source give for `Nc1ccn([C@@H]2O[C@H](CO)[C@@H](O)C2(F)F)c(=O)n1` [gemcitabine] + CC1(C)NC(=O)N(c2ccc([N+](=O)[O-])c(C(F)(F)F)c2)C1=O [nilutamide] (first compound 0.0004 µM, partner dose 1 µM) here?
The value was 164%.

How did the “cleaved PARP positive nuclei fraction” value turn out when `CCCS(=O)(=O)Nc1ccc(F)c(C(=O)c2c[nH]c3ncc(Cl)cc23)c1F` + O=C1NC(=O)/C(=C/c2ccc(-c3ccc(F)cc3O)o2)S1 [AS252424] (first compound 0.08 µM, partner dose 1 µM) was run?
The value was 245%.

With `CNC(=O)c1cc(Oc2ccc(NC(=O)Nc3ccc(Cl)c(C(F)(F)F)c3)cc2)ccn1` [sorafenib] + C[C@@H]1CCN(C(=O)CC#N)C[C@@H]1N(C)c1ncnc2[nH]ccc12 [CP690550] (first compound 0.4 µM, partner dose 1 µM) as the compound, how does the “cleaved PARP positive nuclei fraction” value read?
Its value is 84.2%.

For `Cc1cc(Nc2cc(N3CCN(C)CC3)nc(/C=C/c3ccccc3)n2)n[nH]1` + CN(C)S(=O)(=O)c1ccc2c(c1)/C(=C/c1cc3c([nH]1)CCCC3)C(=O)N2 [SU6656] (first compound 0.04 µM, partner dose 0.4 µM), which “cleaved PARP positive nuclei fraction” value is on record?
Its value is 95.8%.

With `Nc1ncn([C@H]2C[C@H](O)[C@@H](CO)O2)c(=O)n1` [decitabine] + CCCCCCCCCCCC1=C(O)C(=O)C=C(O)C1=O [Embelin] (first compound 0.1 µM, partner dose 1.2 µM) as the compound, how does the “cleaved PARP positive nuclei fraction” value read?
The value was 126%.

Which “cleaved PARP positive nuclei fraction” value does the source give for `Nc1nc(F)nc2c1ncn2[C@@H]1O[C@H](CO)[C@@H](O)[C@@H]1O` [fludarabine] + CCCCCCCCCCCC1=C(O)C(=O)C=C(O)C1=O [Embelin] (first compound 0.2 µM, partner dose 1.2 µM) here?
Its value is 166%.

`O=C(O)c1ccc2c(c1)nc(Nc1cccc(Cl)c1)c1ccncc12` + COc1ccc2c(c1)CCC1C2CCC2(C)C(NCCCCCCN3C(=O)C=CC3=O)CCC12 [U73122] (first compound 0.4 µM, partner dose 0.4 µM) was tested. Which “cleaved PARP positive nuclei fraction” value did it give?
The value was 180%.

With `Nc1ccn([C@@H]2O[C@H](CO)[C@@H](O)C2(F)F)c(=O)n1` [gemcitabine] + CO[C@@H]1[C@H](N(C)C(=O)c2ccccc2)C[C@H]2O[C@]1(C)n1c3ccccc3c3c4c(c5c6ccccc6n2c5c31)C(=O)NC4 [Midostaurin] (first compound 0.0004 µM, partner dose 0.08 µM) as the compound, how does the “cleaved PARP positive nuclei fraction” value read?
The value was 76.5%.

With `CN1CCN(c2ccc3nc(-c4c(N)c5c(F)cccc5[nH]c4=O)[nH]c3c2)CC1` [Dovitinib] + O=C(O)C(=O)Nc1sc2c(c1C(=O)O)CCNC2 [TCS401] (first compound 0.1 µM, partner dose 1.66667 µM) as the compound, how does the “cleaved PARP positive nuclei fraction” value read?
Its value is 143%.

How did the “cleaved PARP positive nuclei fraction” value turn out when `Nc1ncn([C@H]2C[C@H](O)[C@@H](CO)O2)c(=O)n1` [decitabine] + COC(=O)c1sccc1S(=O)(=O)Nc1ccc(Nc2ccccc2)cc1OC [GSK0660] (first compound 0.1 µM, partner dose 1 µM) was run?
The value was 106%.

Which “cleaved PARP positive nuclei fraction” value does the source give for `Cc1cc(Nc2cc(N3CCN(C)CC3)nc(/C=C/c3ccccc3)n2)n[nH]1` + Cc1cc(N2CCOCC2)cc2[nH]c(-c3c(NC[C@@H](O)c4cccc(Cl)c4)cc[nH]c3=O)nc12 [BMS536924] (first compound 0.04 µM, partner dose 0.2 µM) here?
Its value is 89.9%.

For `Cn1c(=O)n(-c2ccc(C(C)(C)C#N)cc2)c2c3cc(-c4cnc5ccccc5c4)ccc3ncc21` + NC(=O)Nc1cc(-c2cccc(F)c2)sc1C(=O)N[C@H]1CCCNC1 [AZD7762] (first compound 0.004 µM, partner dose 0.02 µM), which “cleaved PARP positive nuclei fraction” value is on record?
The value was 84%.

`C=C(c1ccc(C(=O)O)cc1)c1cc2c(cc1C)C(C)(C)CCC2(C)C` [Bexarotene] + O=C(Nc1ccccc1)c1cc([N+](=O)[O-])ccc1Cl [GW9662] (first compound 2 µM, partner dose 2 µM) was tested. Which “cleaved PARP positive nuclei fraction” value did it give?
Its value is 196%.

With `CNC(=O)c1cc(Oc2ccc(NC(=O)Nc3ccc(Cl)c(C(F)(F)F)c3)cc2)ccn1` [sorafenib] + COC(=O)c1sccc1S(=O)(=O)Nc1ccc(Nc2ccccc2)cc1OC [GSK0660] (first compound 0.4 µM, partner dose 1 µM) as the compound, how does the “cleaved PARP positive nuclei fraction” value read?
The value was 88.2%.

How did the “cleaved PARP positive nuclei fraction” value turn out when `CNC(=O)c1cc(Oc2ccc(NC(=O)Nc3ccc(Cl)c(C(F)(F)F)c3)cc2)ccn1` [sorafenib] + CCCCCCCCCCCC1=C(O)C(=O)C=C(O)C1=O [Embelin] (first compound 0.4 µM, partner dose 1.2 µM) was run?
Its value is 135%.
